{
  "source": "patent US12448425B2",
  "about": "“Therapeutic peptides” (Board of Regents, The University of Texas System, priority 2019, dated 2025)",
  "key": {"[1]": {"system": "Bev-resistant RF24 cells", "assay": "Cell death in bevacizumab-resistant RF24 cells (SYTOX-green flow cytometry)", "format": "cell-based", "method": "FIGS. 4A-D: BIDEN-AP-based agents inhibit microtubule formation and sensitizes resistant endothelial cells to anti-VEGF antibody. (FIG. 4A, FIG. 4B) Microtubule formation in RF24 cells treated with EFNB2-Fc (2 nM) or BIDEN-AP (15 μM) compared to untreated controls (CTL). Five images per well were taken at ×100 magnification. […] Representative plots from flow cytometry analysis with SYTOX-green are shown. […] Data are presented as mean±SD (n=6). *p<0.05, **p<0.01.\nGiven the important role of endothelium in adaptive changes with anti-angiogenic therapy (Bergers et al., 2008), we further tested the effects of BIDEN-AP in overcoming resistance to anti-VEGF therapy in RF24 cells. To do this, we first established a bevacizumab (Bev)-resistant RF24 cell line selected though continuous Bev treatment at low dose ([…]) for 2 weeks. The Bev-resistant RF24 cells were maintained at a Bev concentration of […]. Using flow cytometry with SYTOX-green staining, we quantified the live (SYTOX-negative) vs. dead (SYTOX-positive) populations after treatment with BIDEN-AP or CCPM-BIDEN-AP."}, "[2]": {"system": "RF24 cells", "assay": "Tubule formation of immortalized endothelial cells on Matrigel", "format": "cell-based", "details": "BIDEN-AP 15 μM, EFNB2-Fc 2 nM, 24 h"}, "[3]": {"biological_target": "T1, EphB4 (Homo sapiens, UniProt P54760)", "T1 construct": "purchased R&D Systems", "T1 sequence (P54760 16-987)": "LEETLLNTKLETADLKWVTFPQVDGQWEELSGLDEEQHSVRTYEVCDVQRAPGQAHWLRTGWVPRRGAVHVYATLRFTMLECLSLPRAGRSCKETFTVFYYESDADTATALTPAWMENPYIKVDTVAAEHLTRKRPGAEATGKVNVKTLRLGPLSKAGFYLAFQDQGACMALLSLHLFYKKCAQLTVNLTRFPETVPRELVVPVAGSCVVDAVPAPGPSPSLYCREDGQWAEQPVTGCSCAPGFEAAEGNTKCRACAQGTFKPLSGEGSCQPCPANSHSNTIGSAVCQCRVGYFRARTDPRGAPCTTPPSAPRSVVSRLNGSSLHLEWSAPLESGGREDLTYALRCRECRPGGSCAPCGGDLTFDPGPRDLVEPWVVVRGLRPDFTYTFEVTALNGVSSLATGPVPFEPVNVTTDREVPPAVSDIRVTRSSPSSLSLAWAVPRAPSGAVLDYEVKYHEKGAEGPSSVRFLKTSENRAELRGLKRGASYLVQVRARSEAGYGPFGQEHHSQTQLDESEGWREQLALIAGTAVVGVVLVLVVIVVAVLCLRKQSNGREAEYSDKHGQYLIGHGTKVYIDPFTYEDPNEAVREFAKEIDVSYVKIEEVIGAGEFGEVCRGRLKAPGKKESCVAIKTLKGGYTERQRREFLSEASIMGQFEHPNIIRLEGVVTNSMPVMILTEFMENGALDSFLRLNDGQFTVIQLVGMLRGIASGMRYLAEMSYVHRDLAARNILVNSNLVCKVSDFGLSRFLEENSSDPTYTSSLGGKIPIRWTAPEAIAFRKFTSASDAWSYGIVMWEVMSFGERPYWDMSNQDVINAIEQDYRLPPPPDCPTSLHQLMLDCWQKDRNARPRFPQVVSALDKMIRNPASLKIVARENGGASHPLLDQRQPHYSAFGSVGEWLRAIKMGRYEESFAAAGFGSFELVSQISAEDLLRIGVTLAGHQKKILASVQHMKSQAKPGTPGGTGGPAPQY", "assay": "EphB4 phosphorylation screening in HeyA8 cells (IP/immunoblot)", "format": "cell-based", "details": "50 nM, 12 h"}, "[4]": {"system": "A2780cp20 cells", "assay": "Invasion assay (modified Boyden transwell chamber)", "format": "cell-based, human", "details": "24 h"}, "[5]": {"system": "4T1 breast tumor", "assay": "Orthotopic murine 4T1 TNBC model", "format": "in vivo, mouse", "details": "13 mg/kg/injection i.p., 8 injections"}, "[6]": {"system": "MDA-HGSC-1 PDX tumor", "format": "in vivo, mouse", "text": "PDX model of high grade serous ovarian carcinoma (HGSC). Under Institutional Review Board (IRB protocol PA15-0441) and IACUC approval at University of Texas, MD Anderson Cancer Center, patients with high-serous ovarian carcinoma that were being treated by at the MD Anderson Cancer Center were consented for this study. Subcutaneous HGSC-PDX model was established in 4-6 week old female Balb C athymic nude mice (Harlan Laboratories, Indianapolis, Ind.) by implanting one PDX 3×3×3 mm tumor cube (MDA-HGSOC-1 high-grade serous ovarian cancer; generation 9) at the dorsal portion of each mouse. Tumor size was monitored by caliber, and tumor volume was calculated using the formula V(cm^3)=(length×width^2)/2. Mice were randomly assigned to the PBS vehicle control or BIDEN-AP treatment group, 6 mice per group, once tumor size reached ˜100 mm^3 (21 days after implantation). PBS or BIDEN-AP was injected intraperitoneally at […] ([…]), once every other day for a total of 14 doses. At the end of the study (day 49), all mice were euthanized, and tumors were collected, weighted, and snap-frozen in optimal cutting temperature compound with liquid nitrogen, and cryosectioned into 5-μm sections for IHC staining of CD31 and Ki67 markers. […] Cell nuclei were counterstained with DAPI."}},
  "note": "At least one peptide structure holds a part that was inferred or is arguable (an end, a ring closure or a residue). Square brackets hold non-standard residues; d marks the D form. Peptide text beside a SMILES is read from it.",
  "data": [
    {"smiles": "CC[C@H](C)[C@H](NC(=O)[C@@H]1CCCN1C(=O)CNC(=O)[C@H](CC(N)=O)NC(=O)[C@@H]1CCCN1C(=O)[C@H](CO)NC(=O)[C@H](Cc1ccccc1)NC(=O)[C@H](CC(C)C)NC(=O)[C@@H](Cc1ccc(O)cc1)NC(=O)[C@H](CC(N)=O)NC(=O)[C@@H](N)[C@@H](C)O)C(=O)N[C@@H](C)C(=O)N[C@@H](CCCNC(=N)N)C(=O)N[C@@H](C)C(=O)N[C@@H](Cc1c[nH]c2ccccc12)C(N)=O", "note": "[BIDEN-AP] (H-TN[dY]LFSPNGPIARAW-NH2; C-terminus assumed)", "values": [
      {"measurement": "sensitization of Bev-resistant cells to Bev treatment", "setting": "[1]", "result": "re-sensitized these cells to Bev treatment"},
      {"measurement": "formation of capillary-like tubes", "setting": "[2]", "result": "significantly inhibited the formation of capillary-like tubes"},
      {"measurement": "EphB4 phosphorylation", "setting": "[3]", "result": "induced EphB4 phosphorylation"},
      {"measurement": "invasive properties vs untreated control", "setting": "[4]", "result": "significantly reduced invasive properties"},
      {"measurement": "microvessel density (CD31)", "setting": "[5]", "result": "significantly reduced microvessel density"},
      {"measurement": "tumor growth", "setting": "[5]", "result": "significantly delayed tumor growth"},
      {"measurement": "tumor weight at end of study", "setting": "[6]; 28 days after initiation of treatments", "result": "220±164", "unit": "mg^3"},
      {"measurement": "PDX tumor growth", "setting": "[6]; single agent, i.p. every other day, 14 doses", "result": "delayed the growth"}
    ]}
  ]
}
